These results are taken from article PMC12192476.

Amino acid sequences for entries named in this document (tags omitted). A change or cut given only in a name is not applied to a line headed by its entry.
UniProt P16220: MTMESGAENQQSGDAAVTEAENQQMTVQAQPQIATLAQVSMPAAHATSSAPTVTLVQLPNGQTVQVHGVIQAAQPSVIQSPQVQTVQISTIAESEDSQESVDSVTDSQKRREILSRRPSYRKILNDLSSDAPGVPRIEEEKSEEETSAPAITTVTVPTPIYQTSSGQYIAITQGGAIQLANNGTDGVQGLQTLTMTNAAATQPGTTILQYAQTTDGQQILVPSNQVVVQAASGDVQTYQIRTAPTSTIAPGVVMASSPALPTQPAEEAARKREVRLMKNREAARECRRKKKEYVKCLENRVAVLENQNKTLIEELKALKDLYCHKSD

For at least one entry, the source does not settle the construct or the ends of the probe. Where cells or extracts were used, other partners may take part. For part of these data: A negative result means that nothing was seen under these conditions. For part of these data: Weaker means in comparison with the reference protein, sequence or condition of that experiment.

Series [1] concerns the target CREB1 (human (HepG2, MCF-7, Caco-2 nuclear extracts)) (UniProt P16220). Nature of the series: competition with a labelled probe. As to conditions: nuclear extract EMSA as described previously (ref 42), pH and temperature not given, protein in an extract. (In general: A gel shift assay detects complexes by their altered migration in electrophoresis.)
Series [2] has the same target. The series is described as follows: EMSA. As to conditions: complex forms prevalently with allele T, nuclear extract EMSA as described previously (ref 42), pH and temperature not given, protein in an extract.
The target is the same in series [3]. The series is described as follows: EMSA supershift. Particulars: anti-CREB1 nearly eliminates the band and gives a supershift; nuclear extract EMSA as described previously (ref 42); pH and temperature not given; protein in an extract.
Setting [4] is: 25- and 100-fold excess vs T probe, no competition, HepG2, MCF-7 extracts.
Where [5] appears, read: weak competitor at 100-fold excess vs T probe, HepG2, MCF-7 extracts.

On to “CCTGTCTTTGCTCCTTGTTTGGGAAGCGAGTGGG (double strand) [FOXK1]”, for which the binding result in series [1] (setting [4]) is “no binding”.

For “AGAGATTGCCTGACGTCAGAGAGCTAG (double strand) [CREB]”, the binding result in series [1] (25- and 100-fold excess vs T probe, strongest competitor, HepG2, MCF-7 extracts) was “binds”. As for “AGAGATTGCCTGTGGTCAGAGAGCTAG (double strand) [CREB_mut]”, the binding result in series [1] (setting [4]) is on record as “no binding”.

Consider “ATGGCATGCGTTCCGACACAACTTCGGACAG (double strand) [SART3_A (rs2072580-A)]”, for which the binding result is on record as “binds more weakly” in series [2]; “binds more weakly” in series [1] (10- and 25-fold excess, weaker competitor than allele T, HepG2, MCF-7, Caco-2 extracts).

Consider “GATTTCTTCCAATTAGTCACGCTTGAGTG (double strand) [PAX3]”, for which the binding result in series [1] (setting [5]) is recorded as “binds more weakly”.

Regarding “ATGGCATGCGTTCCGTCACAACTTCGGACAG (double strand) [SART3_T (rs2072580-T)]”, the binding result in series [3] is recorded as “binds”; in series [1] (10- and 25-fold excess, considerably stronger competitor than allele A, HepG2, MCF-7, Caco-2 extracts), “binds”.

As for “CGCTTGATGACTCAGCCGGAA (double strand) [AP1]”, the binding result in series [1] (setting [5]) was “binds more weakly”.
